Record: PubChem BioAssay AID1224826 (NIAID, 2016)
Aim: 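Regulators of Tlr4 signalling leading to Tnf-alpha expression in macrophages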 (primary screen). Cells: RAW264.7 G9 macrophages from mouse bearing reporters for p65 (GFP) and the Tnf promoter (mCherry). Knock-down reagent: siRNA pool against mouse genes, 100 nM. Timing: 16 h of LPS stimulation, after 2 days of siRNA transfection. Challenge: bacterial lipopolysaccharide (Salmonella minnesota R595), 10 ng/ml. Detection: 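Nuclear mCherry signal of the Tnf promoter reporter measured by imaging after background removal, scaled to each plate median and turned into robust z-scores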. Scale: Tnf reporter robust z-score: higher = stronger Tnf promoter reporter signal after LPS. Active means: 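a well counts as active at a score of -1.3 or below (Tlr4 knock-down control median) or above 3 (raised signal); controls and wells holding fewer than 50 cells are excluded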. Meaning of the calls: active = Tnf reporter clearly lowered or raised; inactive = no clear change in Tnf reporter.
In all, the deposit lists about 17,000 reagents; shown is an unselected part. In the full data, about 1,110 (6.6%) got an active call. 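Active means lowered or raised reporter signal; replicate intensities are raw and not normalised per plate.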 Entries without a mark were called inactive. Not all columns of the deposit are shown. No sequences are given here.

| gene knocked down | Tnf reporter robust z-score | fewer than 50 cells in well |
| --- | --- | --- |
| Nfx1 | 0.13 | enough cells in well |
| Ubqln3 | -0.32 | enough cells in well |
| Klra8 | -0.41 | enough cells in well |
| Serpina12 | 0.16 | enough cells in well |
| Or11h4b | 0.88 | enough cells in well |
| Kcnj1 | 2.55 | enough cells in well |
| Sohlh2 | – | fewer than 50 cells per well; well left out of calls |
| Snrpb2 | -0.24 | enough cells in well |
| Daam1 | 0.5 | enough cells in well |
| Ssty1 | – | fewer than 50 cells per well; well left out of calls |
| Or8a1b | 0.61 | enough cells in well |
| Lims2 | 1.01 | enough cells in well |
| Lypd8l | – | fewer than 50 cells per well; well left out of calls |
| H2-M11 | -0.85 | enough cells in well |
| Zscan5b | 2.84 | enough cells in well |
| Otc | -0.96 | enough cells in well |
| Dmrt2 | -0.85 | enough cells in well |
| Slc28a2 | -0.82 | enough cells in well |
| Hp | 0.41 | enough cells in well |

Continued, starting with the last 3 of the part before.
| gene knocked down | Tnf reporter robust z-score | fewer than 50 cells in well |
| --- | --- | --- |
| Dmrt2 | -0.85 | enough cells in well |
| Slc28a2 | -0.82 | enough cells in well |
| Hp | 0.41 | enough cells in well |
| Pparg | 0.34 | enough cells in well |
| Ppa1 | 0.18 | enough cells in well |
| Syn1 | -1.24 | enough cells in well |
| Tgfbr2 | 0.64 | enough cells in well |
| Armc9 | – | fewer than 50 cells per well; well left out of calls |
| Grb14 | 0.24 | enough cells in well |
| Serpinb6c | 0.2 | enough cells in well |
| Pld3 | 0.2 | enough cells in well |
| Naip1 | 2.21 | enough cells in well |
| Leap2 | 0.49 | enough cells in well |
| Klf10 | -0.51 | enough cells in well |
| Zbbx | 0.78 | enough cells in well |
| Vmn1r214 | -1.06 | enough cells in well |
| Nab2 | -0.77 | enough cells in well |
| Fam114a2 | – | fewer than 50 cells per well; well left out of calls |
| Pkd2l1 | 1.15 | enough cells in well |
| Eif4ebp1 | -1.39 (active) | enough cells in well |
| Scmh1 | 0.06 | enough cells in well |
| Selenom | 1.42 | enough cells in well |
| Zbtb39 | 0.58 | enough cells in well |
| Glycam1 | -1.74 (active) | enough cells in well |
| Pcgf3 | – | fewer than 50 cells per well; well left out of calls |
| Cnnm1 | -0.64 | enough cells in well |
| Appl2 | 0.88 | enough cells in well |
| Vmn1r40 | 0.63 | enough cells in well |
| Sirt5 | 0.71 | enough cells in well |
| Myoz3 | -1.11 | enough cells in well |
| Atrnl1 | 1.53 | enough cells in well |
| Cgrrf1 | -0.97 | enough cells in well |
| Xylt2 | 1.11 | enough cells in well |
| Actr5 | 1.49 | enough cells in well |
| Amd1 | -1.21 | enough cells in well |
| Prom1 | -0.51 | enough cells in well |
| Brpf1 | -1.54 (active) | enough cells in well |
| Kif2a | -0.27 | enough cells in well |
| Pabpc1 | – | fewer than 50 cells per well; well left out of calls |
| 4833432B22RIK | – | fewer than 50 cells per well; well left out of calls |
| Snx30 | – | fewer than 50 cells per well; well left out of calls |
| Rbm4 | 1.99 | enough cells in well |
